Measured values from PubChem BioAssay AID2685 (National Center for Advancing Translational Sciences (NCATS), 2010).
The other results are listed elsewhere or left out. Shown are side measurements of this screen, not its main read-out; they come without a call. Most of these compounds were active or inconclusive in the main read-out, so they are no random draw. The note in brackets gives the kind of curve behind each potency; many fits are weak.

Test: qHTS Assay for Lipid Storage Modulators in Drosophila S3 Cells;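 as to cell number change: cells counted by Cell Tracker Red CMTPX staining in the red channel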
Conditions: BODIPY lipid droplet fluorescence, 18-24 h; for cell number change: measured here: cell count max response, cells fed with added oleic acid
How it was run: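 Drosophila S3 cells got compounds at several concentrations plus oleic acid (400 uM solution). Laser-scanning cytometry with 488 nm excitation read lipid droplets at 500-530 nm and cells at 575-640 nm. Percent activity was relative to 20 uM Triacsin C.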

[1] = measured here: lipid fluorescence (Fed channel) AC50, cells fed with added oleic acid
[2] = measured here: cell number channel AC50, cells fed with added oleic acid

Row | Compound | AC50 [1] | cell number change | AC50 [2]
1 | COc1ccc(CNC(=O)c2c(O)c3cccc4c3n(c2=O)CCC4)cc1OC | 0.58 µM [rising, single point] | – | –
2 | CC1=C(C(=O)OCc2ccccc2)C(c2ccccc2)NC(=O)N1CCCC(=O)O (stereo not drawn) | – | 10.8% | –
3 | CC(NC(=O)C1CCC(CNc2c(N3CCOCC3)c(=O)c2=O)CC1)c1ccccc1 (stereo not drawn) | 2.06 µM [falling, partial curve] | -9.09% | –
4 | O=C(NCc1ccco1)C(=S)N1CCCCC1 | – | 33.3% | –
5 | O=C(CSc1nnc(-c2ccco2)c(-c2ccco2)n1)Nc1ccccc1 | 0.517 µM [falling, partial curve, poor fit] | 3.83% | 6.51 µM [falling, single point]
6 | CCCNS(=O)(=O)c1ccc(OCC(=O)N2CCc3ccccc3C2)c(C)c1 | 29.1 µM [falling, single point] | -7.14% | –
7 | COc1cc(OC)cc(C(=O)N2CCN(S(=O)(=O)c3ccc(Cl)s3)CC2)c1 | – | 14.2% | –
8 | O=c1[nH]c(=O)n(Cc2ccccc2)c2nc(-c3ccco3)cc(C(F)(F)F)c12 | 6.51 µM [rising, single point] | -10.7% | –
9 | CC1(C)[C@@H](O)CC[C@]2(C)C3C(O)C=C4[C@H]5C[C@@](C)(C(=O)O)CC[C@]5(C)CC[C@]4(C)[C@]3(C)CC[C@@H]12 (stereo partly drawn) | 18.4 µM [falling, partial curve, poor fit] | -62.6% | 25.9 µM [falling, partial curve]
10 | CCN(CC)S(=O)(=O)c1cc(NC(=O)CSc2nccn2C)ccc1C | 0.0146 µM [rising, full curve] | 21.3% | 0.0291 µM [rising, full curve, poor fit]
11 | COc1ccc(NC(=O)CN2C(=O)NC3(CCCCC3C)C2=O)cc1OC (stereo not drawn) | 29.1 µM [rising, single point] | -0.429% | –
12 | Oc1c(Br)cc(Br)cc1CNn1cnnc1 | 20.6 µM [falling, single point] | 13.5% | –
13 | Cc1ccc(Oc2nn[nH]n2)cc1 | 16.4 µM [rising, partial curve, poor fit] | 10.2% | –
14 | Cn1c2ccsc2c2ncn(Cc3ccc(F)cc3)c(=O)c21 | 20.6 µM [rising, single point] | 5.75% | –
15 | Cc1ccc(Sc2c(C#N)c(-c3ccccc3)nn2C)cc1 | – | -19.4% | –
16 | O=S(=O)(Nc1cc(C(F)(F)F)ccc1N1CCOCC1)c1ccc2ccccc2c1 | 9.2 µM [rising, partial curve] | 19.7% | –
17 | CN(Cc1cccs1)C(=O)COC(=O)CNC(N)=O | 1.03 µM [rising, full curve, poor fit] | -36.4% | 29.1 µM [falling, single point]
18 | CCCCCCSc1ccc([C@H]2N[C@@](Cc3ccccc3)(C(=O)OC)[C@H]3C(=O)N(CC)C(=O)[C@@H]23)cc1 | 0.517 µM [falling, full curve] | -32.8% | 23.1 µM [falling, single point]

Row | Compound | AC50 [1] | cell number change | AC50 [2]
19 | CC(Oc1ccccc1)C(=O)N1CCN(c2ccc(N3CCCCC3)nn2)CC1 (stereo not drawn) | 0.82 µM [falling, partial curve, poor fit] | 13.2% | –
20 | COc1ccc(/C(N)=N/OC(=O)C2CCCCC2)cc1OC | 1.84 µM [falling, partial curve] | – | –
21 | O=C(COC(=O)c1nc(Cl)ccc1Cl)NNC(=O)c1cccs1 | – | -17% | 1.16 µM [falling, full curve, poor fit]
22 | Cc1cc(C)cc(N(CC(=O)Nc2ccccc2)C2=NC3CS(=O)(=O)CC3S2)c1 (stereo not drawn) | – | 34.5% | 5.8 µM [rising, partial curve, poor fit]
23 | O=C(CSc1nnc2ncccn12)N1CCCCCC1 | 6.51 µM [falling, single point] | – | –
24 | Cc1ccc(C(=O)NCC(c2ccco2)N2CCc3ccccc3C2)cc1 (stereo not drawn) | 18.4 µM [rising, single point] | 23.2% | –
25 | Cn1c(=O)c2c(nc(Cl)n2Cc2ccncc2)n(C)c1=O | – | -16.4% | –
26 | Oc1cccc2ccc(/C=C/c3ccc(Br)s3)nc12 | 0.411 µM [falling, partial curve, poor fit] | 37.9% | 16.4 µM [rising, single point]
27 | C=CCN1CC(=O)N2C(c3ccccc3)c3[nH]c4ccccc4c3C[C@H]2C1=O (stereo partly drawn) | 29.1 µM [rising, single point] | 8.51% | –
28 | Cc1cccc(C)c1N(CC(=O)NCc1ccc(F)cc1)C(=O)c1csnn1 | – | -18.8% | 0.00517 µM [falling, full curve, poor fit]
29 | Cc1ccc(-c2cn(-c3ccc(OC(F)F)cc3)c3[n+]2CCCCC3)cc1 | 20.6 µM [falling, single point] | -28.8% | –
30 | CCOC(=O)C1CCN(C(=O)COC(=O)c2cc(-c3cccs3)nn2-c2ccccc2)CC1 | 6.51 µM [rising, single point] | 47.3% | 4.11 µM [rising, partial curve, poor fit]
31 | C=CCOc1ccc(/C=C2/C(=O)ON=C2C)cc1OC | 29.1 µM [falling, single point] | -18.2% | –
32 | COc1ccc(N2CCN(C(=O)COc3ccc4c(C)cc(=O)oc4c3)CC2)cc1 | 2.91 µM [rising, partial curve] | -21.1% | 2.59 µM [rising, partial curve]
33 | Cc1csc2nc(CSc3nc4ccccc4o3)cn12 | 0.326 µM [rising, full curve, poor fit] | -8.28% | –
34 | CCOC(=O)N1CCN(C(=O)COC(=O)c2cccc(S(C)(=O)=O)c2)CC1 | – | -10% | –
35 | Cc1ccc(S(=O)(=O)N2CCOCC2)cc1C(=O)Nc1ccc(-c2cn3ccsc3n2)cc1 | 0.259 µM [rising, full curve, poor fit] | 24.4% | 0.58 µM [rising, full curve]
36 | O=C(CCN1CCCC1Cc1ccccc1)c1ccc2c(c1)OCCO2 (stereo not drawn) | 18.4 µM [falling, partial curve] | -44.9% | 16.4 µM [falling, partial curve]

Single entries from the results shown:
Entry for `COc1ccc(/C(N)=N/OC(=O)C2CCCCC2)cc1OC` under AC50 [1]: 1.84 µM [falling, partial curve]
Entry for `C=CCOc1ccc(/C=C2/C(=O)ON=C2C)cc1OC` under cell number change: -18.2%
